Consider 2 substances from article PMC11549082.

Amino acid sequences for entries named in this document (tags omitted). A change or cut given only in a name is not applied to a line headed by its entry.
UniProt Q9UH99: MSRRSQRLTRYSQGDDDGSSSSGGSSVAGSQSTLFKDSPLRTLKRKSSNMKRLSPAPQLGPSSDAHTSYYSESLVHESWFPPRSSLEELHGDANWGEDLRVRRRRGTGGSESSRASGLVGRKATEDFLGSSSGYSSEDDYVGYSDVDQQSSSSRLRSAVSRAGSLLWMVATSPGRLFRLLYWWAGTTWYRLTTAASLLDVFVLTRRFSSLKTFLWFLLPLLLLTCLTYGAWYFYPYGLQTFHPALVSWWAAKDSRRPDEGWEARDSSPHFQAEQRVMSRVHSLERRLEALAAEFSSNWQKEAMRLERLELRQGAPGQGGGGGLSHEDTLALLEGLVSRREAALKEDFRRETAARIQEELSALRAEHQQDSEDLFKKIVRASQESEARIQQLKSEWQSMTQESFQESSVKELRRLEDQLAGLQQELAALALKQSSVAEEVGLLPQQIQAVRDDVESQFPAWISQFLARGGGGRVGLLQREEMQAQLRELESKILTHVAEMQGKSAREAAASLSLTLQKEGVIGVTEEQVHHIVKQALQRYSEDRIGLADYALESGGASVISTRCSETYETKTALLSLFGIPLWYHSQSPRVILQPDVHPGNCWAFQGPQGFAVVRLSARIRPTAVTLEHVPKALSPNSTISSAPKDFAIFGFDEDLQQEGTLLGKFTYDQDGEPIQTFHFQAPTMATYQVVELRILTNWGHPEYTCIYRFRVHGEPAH
UniProt Q0GNC1: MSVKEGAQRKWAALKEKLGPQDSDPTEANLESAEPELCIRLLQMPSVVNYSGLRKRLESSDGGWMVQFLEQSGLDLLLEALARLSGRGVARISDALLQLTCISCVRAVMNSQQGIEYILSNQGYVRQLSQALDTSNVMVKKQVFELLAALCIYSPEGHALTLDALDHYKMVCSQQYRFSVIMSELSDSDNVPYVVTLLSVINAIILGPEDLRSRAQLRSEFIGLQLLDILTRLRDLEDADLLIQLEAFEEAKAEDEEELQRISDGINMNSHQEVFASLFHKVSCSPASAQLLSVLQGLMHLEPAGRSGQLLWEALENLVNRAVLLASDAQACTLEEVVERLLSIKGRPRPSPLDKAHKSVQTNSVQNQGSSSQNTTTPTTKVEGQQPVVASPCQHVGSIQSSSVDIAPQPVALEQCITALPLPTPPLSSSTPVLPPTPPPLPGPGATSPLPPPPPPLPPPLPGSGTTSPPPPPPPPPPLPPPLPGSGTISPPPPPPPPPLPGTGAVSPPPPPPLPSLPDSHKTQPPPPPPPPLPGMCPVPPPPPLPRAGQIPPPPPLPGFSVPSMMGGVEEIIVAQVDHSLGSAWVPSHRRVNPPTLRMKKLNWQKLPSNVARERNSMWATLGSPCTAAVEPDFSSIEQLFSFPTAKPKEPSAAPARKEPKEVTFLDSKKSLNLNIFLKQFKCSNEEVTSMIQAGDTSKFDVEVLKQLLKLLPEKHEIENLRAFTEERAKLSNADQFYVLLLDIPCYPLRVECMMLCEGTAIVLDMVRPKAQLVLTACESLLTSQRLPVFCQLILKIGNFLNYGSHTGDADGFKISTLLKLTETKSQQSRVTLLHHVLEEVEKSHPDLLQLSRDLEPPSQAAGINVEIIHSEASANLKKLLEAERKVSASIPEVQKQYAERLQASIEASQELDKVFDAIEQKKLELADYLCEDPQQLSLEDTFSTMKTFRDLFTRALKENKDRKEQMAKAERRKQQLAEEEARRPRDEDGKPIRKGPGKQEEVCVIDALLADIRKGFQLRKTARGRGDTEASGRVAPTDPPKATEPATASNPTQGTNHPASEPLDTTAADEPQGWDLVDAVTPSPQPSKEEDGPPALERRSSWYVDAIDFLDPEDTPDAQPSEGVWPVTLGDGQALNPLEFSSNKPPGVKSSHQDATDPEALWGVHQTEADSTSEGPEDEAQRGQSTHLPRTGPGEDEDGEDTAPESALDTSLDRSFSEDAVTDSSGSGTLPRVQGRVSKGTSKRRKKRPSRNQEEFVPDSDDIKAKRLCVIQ
UniProt Q27J81: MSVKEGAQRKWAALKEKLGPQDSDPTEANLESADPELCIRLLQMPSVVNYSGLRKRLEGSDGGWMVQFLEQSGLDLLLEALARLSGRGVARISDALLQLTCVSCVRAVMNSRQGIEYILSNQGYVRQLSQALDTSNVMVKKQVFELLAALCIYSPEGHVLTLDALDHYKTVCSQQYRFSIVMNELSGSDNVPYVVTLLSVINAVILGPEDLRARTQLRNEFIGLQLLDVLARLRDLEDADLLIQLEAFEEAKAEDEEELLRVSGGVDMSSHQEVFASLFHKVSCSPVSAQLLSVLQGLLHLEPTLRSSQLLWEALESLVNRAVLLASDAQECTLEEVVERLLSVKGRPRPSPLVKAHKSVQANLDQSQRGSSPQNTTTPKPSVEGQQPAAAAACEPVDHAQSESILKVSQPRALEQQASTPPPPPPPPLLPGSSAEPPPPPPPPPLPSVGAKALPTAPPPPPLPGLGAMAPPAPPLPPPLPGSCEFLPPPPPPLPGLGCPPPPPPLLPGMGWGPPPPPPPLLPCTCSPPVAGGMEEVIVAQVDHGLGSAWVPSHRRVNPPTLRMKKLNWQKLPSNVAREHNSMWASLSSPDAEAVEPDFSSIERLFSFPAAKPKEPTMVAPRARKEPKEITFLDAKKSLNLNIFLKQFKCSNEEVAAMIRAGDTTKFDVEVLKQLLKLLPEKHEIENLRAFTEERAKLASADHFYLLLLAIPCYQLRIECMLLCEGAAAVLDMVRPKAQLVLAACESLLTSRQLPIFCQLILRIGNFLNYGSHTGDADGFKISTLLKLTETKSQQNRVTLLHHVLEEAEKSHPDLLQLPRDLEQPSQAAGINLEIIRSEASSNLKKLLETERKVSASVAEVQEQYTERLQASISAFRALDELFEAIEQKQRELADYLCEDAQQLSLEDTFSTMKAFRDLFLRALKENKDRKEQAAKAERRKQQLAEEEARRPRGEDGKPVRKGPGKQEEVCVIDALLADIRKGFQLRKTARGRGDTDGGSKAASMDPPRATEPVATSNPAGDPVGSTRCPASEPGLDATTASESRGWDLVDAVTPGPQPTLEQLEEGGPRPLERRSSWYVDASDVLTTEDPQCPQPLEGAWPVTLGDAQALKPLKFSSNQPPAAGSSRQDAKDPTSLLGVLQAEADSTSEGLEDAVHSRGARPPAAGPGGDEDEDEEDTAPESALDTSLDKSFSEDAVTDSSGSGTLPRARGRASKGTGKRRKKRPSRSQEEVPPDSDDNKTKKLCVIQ

Assay [1] has as its target T1, SUN2 (endogenous, NIH3T3 cells) (mouse (endogenous in NIH3T3)) (UniProt Q8BJS4).
T1 sequence: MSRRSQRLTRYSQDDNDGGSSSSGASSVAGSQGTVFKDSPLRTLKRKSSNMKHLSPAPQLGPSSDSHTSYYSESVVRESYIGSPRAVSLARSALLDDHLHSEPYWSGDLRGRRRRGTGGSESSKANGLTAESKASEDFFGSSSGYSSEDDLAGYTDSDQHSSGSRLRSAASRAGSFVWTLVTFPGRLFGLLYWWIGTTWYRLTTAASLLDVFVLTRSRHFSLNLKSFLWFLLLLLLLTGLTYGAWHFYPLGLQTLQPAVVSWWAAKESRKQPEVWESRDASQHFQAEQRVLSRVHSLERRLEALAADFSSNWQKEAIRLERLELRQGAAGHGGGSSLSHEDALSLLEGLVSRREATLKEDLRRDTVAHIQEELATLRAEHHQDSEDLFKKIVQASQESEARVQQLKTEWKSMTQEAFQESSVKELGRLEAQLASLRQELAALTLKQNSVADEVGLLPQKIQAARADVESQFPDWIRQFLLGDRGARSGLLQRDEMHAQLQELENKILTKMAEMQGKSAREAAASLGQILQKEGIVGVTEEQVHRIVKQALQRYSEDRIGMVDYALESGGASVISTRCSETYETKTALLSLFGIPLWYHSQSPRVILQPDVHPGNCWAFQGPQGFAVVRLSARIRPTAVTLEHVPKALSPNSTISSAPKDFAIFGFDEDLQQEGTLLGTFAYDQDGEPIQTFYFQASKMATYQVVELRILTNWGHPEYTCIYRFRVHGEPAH
The experiment in a line: proximity ligation; Duolink PLA on endogenous proteins in NIH3T3 cells, pre-extracted in CSK buffer and fixed in ethanol; cells untreated, 1 µM A23187 for 1 min, pre-treated with 10 µM BAPTA-AM for 30 min, or siSUN2; mouse anti-SUN2 with a rabbit antibody to the partner.

The target of assay [2] is hSUN2-FLAG (human SUN2 with a C-terminal FLAG tag) (human) (UniProt Q9UH99). The experiment in a line: co-IP; HEK293T cells transfected separately with hSUN2-FLAG or INF2-CAAX; lysates mixed and incubated with anti-FLAG M2 beads 150 min at 4 °C; Co-IP buffer 20 mM Tris pH 7.5, 150 mM NaCl, 5 mM CaCl2, 1% glycerol, 1% NP-40, 0.05% SDS; INF2 detected by immunoblot with anti-INF2. In general terms: Immunoblotting shows a protein as a band on a membrane.

These are yes or no findings as the source states them, for the method shown. In cells and extracts the contact can be indirect. Some binding calls cover weakened binding; strength is not graded here.

For “INF2 (inverted formin 2; endogenous, NIH3T3 cells) (from UniProt Q0GNC1 1-1273)”, in assay [1], the binding entry was “binds”.

With “human INF2-CAAX (inverted formin 2, prenylated CAAX splice variant) (from UniProt Q27J81 1-1249)”, in assay [2], the binding entry was “binds”.
